Assay: SPR measurement of amount of non-specific adsorption on attachment film 1
Assay type: binding
Protocol: Next, preparation of an attachment film on the dielectric block which has been explained in the above embodiment, and measurement of the amount of non-specific adsorption of a compound on the attachment film prepared will be described. The preparation of an attachment film, and the measurement of the amount of non-specific adsorption was carried out using a commercially available surface plasmon sensor. […] It is obvious that, depending upon the structure of the compound, the amount of non-specific adsorption on the attachment film varies.

Compound: NS(=O)(=O)c1cc2c(cc1Cl)NCNS2(=O)=O [Compound C]
- Amount of non-specific adsorption on attachment film 1 (0.01 mM in PBS buffer (10 mM sodium phosphate, 150 mM NaCl, 0.005% Tween20, pH 7.4)/DMSO 5%, flown 3 min, then buffer 3 min): 0 RU
- Amount of non-specific adsorption on attachment film (attachment film 1, 0.03 mM in PBS buffer (10 mM sodium phosphate, 150 mM NaCl, pH 7.4)/DMSO 5%): 0 RU

Source: patent publication US20070203654A1, “Measuring apparatus, and measuring method” (FUJI PHOTO FILM CO., LTD., priority 2005, published 2007)
